No constants are given. Whether binding was seen depends on the method and setting. For some assays here: Binding seen in cells or lysates may run through a third protein. Some results given as binding are weak or reduced against the parent protein; the word gives no strength. For some assays here: Tags and fused reporters may be left off the sequences shown.
How the values were obtained:
Bcl-2 [1] = molecular target: Bcl-2 (UniProt P10415); experiment: immunoprecipitation assays
myc-tagged Bcl-2 [2] = molecular target: myc-tagged Bcl-2 (UniProt P10415); experiment: co-immunoprecipitation, immunoblot (FIG. 19)
myc-tagged Bcl-B [3] = molecular target: T1, myc-tagged Bcl-B (UniProt Q9HD36); experiment: co-immunoprecipitation, immunoblot (FIG. 19)
T1 sequence (looked up): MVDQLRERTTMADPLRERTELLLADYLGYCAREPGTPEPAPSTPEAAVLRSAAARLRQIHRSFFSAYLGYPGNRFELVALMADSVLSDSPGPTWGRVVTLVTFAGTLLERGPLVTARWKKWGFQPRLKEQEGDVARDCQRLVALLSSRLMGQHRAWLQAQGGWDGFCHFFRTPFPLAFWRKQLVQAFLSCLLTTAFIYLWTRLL

Sequences of proteins named here, by UniProt entry; tags and fusion partners are left off.
UniProt P10415: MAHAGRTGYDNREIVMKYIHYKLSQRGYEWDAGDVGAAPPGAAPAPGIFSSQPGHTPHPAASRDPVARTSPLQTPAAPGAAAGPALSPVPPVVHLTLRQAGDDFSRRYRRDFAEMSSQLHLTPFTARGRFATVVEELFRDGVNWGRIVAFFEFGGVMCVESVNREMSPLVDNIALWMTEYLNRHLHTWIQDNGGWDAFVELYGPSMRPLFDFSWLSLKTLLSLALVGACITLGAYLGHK

myc-tagged Bfl-1 [4] = molecular target: T2, myc-tagged Bfl-1 (UniProt Q16548); experiment: co-immunoprecipitation, immunoblot (FIG. 19)
T2 sequence (looked up): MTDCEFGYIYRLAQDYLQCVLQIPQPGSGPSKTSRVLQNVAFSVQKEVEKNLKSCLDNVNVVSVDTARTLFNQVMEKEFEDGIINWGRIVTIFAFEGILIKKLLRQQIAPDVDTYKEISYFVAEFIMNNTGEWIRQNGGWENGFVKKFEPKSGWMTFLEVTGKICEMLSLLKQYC

Bcl-2 [5] = molecular target: Bcl-2 (UniProt P10415); experiment: co-immunoprecipitation with anti-Bcl-2 antibody
Bcl-2 [6] = molecular target: Bcl-2 (UniProt P10415); experiment: co-immunoprecipitation with anti-Bcl-2 antibody, HEK293T cells
myc-tagged Bcl-2 [7] = molecular target: myc-tagged Bcl-2 (UniProt P10415); experiment: co-immunoprecipitation with anti-Myc antibody, anti-GFP immunoblot, HEK293T cells
myc-tagged Bcl-B [8] = molecular target: T1, myc-tagged Bcl-B; experiment: as above
myc-tagged Bfl-1 [9] = molecular target: T2, myc-tagged Bfl-1; experiment: as above
GST-Bcl-2 [GST: P08515] [10] = experiment: circular dichroism
GST-Bcl-2 [GST: P08515] [11] = experiment: fluorescence polarization competition

Measured: binding

FSRSLHSLL (peptide, not shown: large carriers) [GFP-Nur77/489-497]
not listed: GST-Bcl-2 [GST: P08515] [10] | GST-Bcl-2 [GST: P08515] [11]
binds: all other assays above

FSRSLHSLL (N-terminal acetyl; C-terminal amide (said of all peptides)) [NuBCP-9 (unconjugated)]
binds: GST-Bcl-2 [GST: P08515] [10] | GST-Bcl-2 [GST: P08515] [11]

Source: patent US20070054863A1
